In this assay the target is Chlamydomonas IFT-B1 pentamer CrIFT81/74_(128-C)/27/25_(1-136)/22 (Chlamydomonas reinhardtii). As to the kind of experiment: SEC.

Results are given in words; binding and its absence hold for the method and conditions named. Binding can be weak; no strength is given.

B1: human RabL2B (protein, UniProt Q9UNT1 1-228)
chain: MAEDKTKPSELDQGKYDADDNVKIICLGDSAVGKSKLMERFLMDGFQPQQLSTYALTLYKHTATVDGRTILVDFWDTAGQERFQSMHASYYHKAHACIMVFDVQRKVTYRNLSTWYTELREFRPEIPCIVVANKIDDINVTQKSFNFAKKFSLPLYFVSAADGTNVVKLFNDAIRLAVSYKQNSQDFMDEIFQELENFSLEQEEEDVPDQEQSSSIETPSEEAASPHS
With B1, the binding result is reported as “binds”.

Source of the values: paper doi:10.1101/2022.05.31.494111.
